From PMC13335541
No constants are given. Whether binding was seen depends on the method and setting. In cells and extracts the contact can be indirect. Some entries that bind do so weakly or less than the wild type.

Protein sequences, listed by entry. Tags and fused reporters are not part of them. Residues count along the entry.
UniProt E9Q557: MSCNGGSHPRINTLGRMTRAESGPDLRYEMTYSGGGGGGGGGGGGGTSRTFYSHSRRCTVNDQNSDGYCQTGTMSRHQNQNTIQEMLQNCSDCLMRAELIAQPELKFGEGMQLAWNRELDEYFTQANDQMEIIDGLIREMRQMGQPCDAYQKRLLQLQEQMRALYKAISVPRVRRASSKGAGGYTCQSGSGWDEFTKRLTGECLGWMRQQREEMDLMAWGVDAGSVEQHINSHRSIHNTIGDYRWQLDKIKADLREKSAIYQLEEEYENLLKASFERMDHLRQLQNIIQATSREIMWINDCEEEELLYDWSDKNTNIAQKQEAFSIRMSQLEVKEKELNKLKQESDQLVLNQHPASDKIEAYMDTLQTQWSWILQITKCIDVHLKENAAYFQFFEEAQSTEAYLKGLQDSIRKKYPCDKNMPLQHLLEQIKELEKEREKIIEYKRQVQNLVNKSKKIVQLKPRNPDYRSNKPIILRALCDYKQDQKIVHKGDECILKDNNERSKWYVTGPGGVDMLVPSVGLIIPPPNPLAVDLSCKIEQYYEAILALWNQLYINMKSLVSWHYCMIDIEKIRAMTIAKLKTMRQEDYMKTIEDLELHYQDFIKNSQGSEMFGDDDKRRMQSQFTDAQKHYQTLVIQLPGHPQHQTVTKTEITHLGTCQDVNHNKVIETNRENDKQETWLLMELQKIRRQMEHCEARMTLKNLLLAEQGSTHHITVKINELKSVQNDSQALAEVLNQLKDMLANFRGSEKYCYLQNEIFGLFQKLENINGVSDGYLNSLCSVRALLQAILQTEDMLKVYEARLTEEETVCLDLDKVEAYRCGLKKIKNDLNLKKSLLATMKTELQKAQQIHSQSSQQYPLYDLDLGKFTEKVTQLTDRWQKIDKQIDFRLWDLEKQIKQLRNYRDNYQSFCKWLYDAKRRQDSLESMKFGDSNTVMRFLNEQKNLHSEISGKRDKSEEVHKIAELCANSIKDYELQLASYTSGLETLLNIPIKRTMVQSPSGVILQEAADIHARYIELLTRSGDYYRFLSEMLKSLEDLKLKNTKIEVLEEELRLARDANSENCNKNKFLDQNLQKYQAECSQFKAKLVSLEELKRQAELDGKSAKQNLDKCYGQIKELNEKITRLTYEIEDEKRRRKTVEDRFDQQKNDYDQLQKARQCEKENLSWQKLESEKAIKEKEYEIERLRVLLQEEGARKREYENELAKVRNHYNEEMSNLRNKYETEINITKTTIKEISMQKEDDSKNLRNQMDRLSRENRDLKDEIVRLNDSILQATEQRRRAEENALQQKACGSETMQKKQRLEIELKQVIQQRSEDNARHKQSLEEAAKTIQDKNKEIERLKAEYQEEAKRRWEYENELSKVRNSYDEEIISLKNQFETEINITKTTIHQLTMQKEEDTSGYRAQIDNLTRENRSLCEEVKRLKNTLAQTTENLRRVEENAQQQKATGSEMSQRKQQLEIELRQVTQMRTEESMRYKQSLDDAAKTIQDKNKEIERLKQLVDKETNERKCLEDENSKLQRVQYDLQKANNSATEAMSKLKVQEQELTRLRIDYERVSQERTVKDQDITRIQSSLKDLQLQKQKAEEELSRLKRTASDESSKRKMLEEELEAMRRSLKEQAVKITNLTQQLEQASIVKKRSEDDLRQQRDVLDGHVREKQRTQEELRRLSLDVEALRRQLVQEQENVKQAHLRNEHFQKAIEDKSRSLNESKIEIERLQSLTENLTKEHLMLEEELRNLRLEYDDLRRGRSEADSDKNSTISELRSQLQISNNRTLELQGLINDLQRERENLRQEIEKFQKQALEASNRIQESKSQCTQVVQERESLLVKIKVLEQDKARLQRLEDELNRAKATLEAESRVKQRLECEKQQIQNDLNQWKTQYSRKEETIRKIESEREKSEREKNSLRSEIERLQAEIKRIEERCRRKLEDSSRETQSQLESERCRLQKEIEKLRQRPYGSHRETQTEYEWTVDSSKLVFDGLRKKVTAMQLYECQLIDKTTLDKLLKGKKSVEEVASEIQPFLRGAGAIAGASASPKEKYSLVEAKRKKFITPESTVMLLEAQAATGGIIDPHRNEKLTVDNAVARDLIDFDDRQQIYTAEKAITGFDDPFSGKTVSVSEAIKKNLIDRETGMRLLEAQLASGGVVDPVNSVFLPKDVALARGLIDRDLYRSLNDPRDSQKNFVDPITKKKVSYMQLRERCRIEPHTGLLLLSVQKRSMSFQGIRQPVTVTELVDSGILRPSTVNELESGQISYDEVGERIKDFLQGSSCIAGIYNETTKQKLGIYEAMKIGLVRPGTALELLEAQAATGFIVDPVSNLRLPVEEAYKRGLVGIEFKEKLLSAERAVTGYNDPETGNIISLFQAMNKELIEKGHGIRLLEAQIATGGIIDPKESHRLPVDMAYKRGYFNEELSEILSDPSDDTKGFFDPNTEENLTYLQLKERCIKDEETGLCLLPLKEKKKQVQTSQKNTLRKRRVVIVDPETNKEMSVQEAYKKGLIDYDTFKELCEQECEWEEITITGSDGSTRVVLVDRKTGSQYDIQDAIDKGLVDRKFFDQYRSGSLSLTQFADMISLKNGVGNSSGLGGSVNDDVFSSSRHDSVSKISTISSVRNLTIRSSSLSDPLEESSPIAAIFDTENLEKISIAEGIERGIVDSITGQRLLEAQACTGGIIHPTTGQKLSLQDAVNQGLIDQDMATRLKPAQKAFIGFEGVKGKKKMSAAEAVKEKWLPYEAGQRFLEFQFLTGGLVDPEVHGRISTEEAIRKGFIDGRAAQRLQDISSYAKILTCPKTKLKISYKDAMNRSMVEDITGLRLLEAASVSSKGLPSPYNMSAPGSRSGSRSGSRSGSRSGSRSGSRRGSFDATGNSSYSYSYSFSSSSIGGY
UniProt P15209, residues 32-821: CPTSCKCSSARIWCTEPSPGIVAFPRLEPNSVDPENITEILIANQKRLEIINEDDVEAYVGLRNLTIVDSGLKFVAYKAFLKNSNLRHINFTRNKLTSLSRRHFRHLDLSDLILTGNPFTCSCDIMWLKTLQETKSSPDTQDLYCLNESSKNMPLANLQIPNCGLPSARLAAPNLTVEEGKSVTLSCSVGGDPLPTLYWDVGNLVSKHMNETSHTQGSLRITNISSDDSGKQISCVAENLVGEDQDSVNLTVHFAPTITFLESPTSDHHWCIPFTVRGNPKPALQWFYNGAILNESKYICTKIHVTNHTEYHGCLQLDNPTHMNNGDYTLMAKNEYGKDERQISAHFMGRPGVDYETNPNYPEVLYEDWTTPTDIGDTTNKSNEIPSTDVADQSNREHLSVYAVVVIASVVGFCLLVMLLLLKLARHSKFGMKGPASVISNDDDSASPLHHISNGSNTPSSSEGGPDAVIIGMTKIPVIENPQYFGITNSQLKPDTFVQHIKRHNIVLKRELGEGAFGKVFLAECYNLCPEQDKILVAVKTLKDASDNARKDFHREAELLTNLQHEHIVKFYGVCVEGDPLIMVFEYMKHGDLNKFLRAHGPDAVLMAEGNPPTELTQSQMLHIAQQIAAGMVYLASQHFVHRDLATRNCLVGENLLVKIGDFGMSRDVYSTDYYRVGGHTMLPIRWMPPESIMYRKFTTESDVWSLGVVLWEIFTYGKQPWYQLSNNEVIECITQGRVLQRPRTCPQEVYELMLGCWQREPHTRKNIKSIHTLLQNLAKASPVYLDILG

Molecular target: DSP (mouse (endogenous in DRG)) (UniProt E9Q557)
Assay: proximity ligation; Duolink PLA on 15 µm cryostat sections of L5 DRG of sham and SNI mice (6 weeks post-injury), pairs of primary antibodies from two species; more PLA signals per cell in SNI than in sham

Substance: TrkB (from UniProt P15209 32-821) (receptor)
- binding: binds
